{"sequences": {"note": "Sequences of proteins named here, by UniProt entry; tags and fusion partners are left off. A change or cut given only in a name is not applied to a line headed by its entry.", "UniProt Q9UNA4": "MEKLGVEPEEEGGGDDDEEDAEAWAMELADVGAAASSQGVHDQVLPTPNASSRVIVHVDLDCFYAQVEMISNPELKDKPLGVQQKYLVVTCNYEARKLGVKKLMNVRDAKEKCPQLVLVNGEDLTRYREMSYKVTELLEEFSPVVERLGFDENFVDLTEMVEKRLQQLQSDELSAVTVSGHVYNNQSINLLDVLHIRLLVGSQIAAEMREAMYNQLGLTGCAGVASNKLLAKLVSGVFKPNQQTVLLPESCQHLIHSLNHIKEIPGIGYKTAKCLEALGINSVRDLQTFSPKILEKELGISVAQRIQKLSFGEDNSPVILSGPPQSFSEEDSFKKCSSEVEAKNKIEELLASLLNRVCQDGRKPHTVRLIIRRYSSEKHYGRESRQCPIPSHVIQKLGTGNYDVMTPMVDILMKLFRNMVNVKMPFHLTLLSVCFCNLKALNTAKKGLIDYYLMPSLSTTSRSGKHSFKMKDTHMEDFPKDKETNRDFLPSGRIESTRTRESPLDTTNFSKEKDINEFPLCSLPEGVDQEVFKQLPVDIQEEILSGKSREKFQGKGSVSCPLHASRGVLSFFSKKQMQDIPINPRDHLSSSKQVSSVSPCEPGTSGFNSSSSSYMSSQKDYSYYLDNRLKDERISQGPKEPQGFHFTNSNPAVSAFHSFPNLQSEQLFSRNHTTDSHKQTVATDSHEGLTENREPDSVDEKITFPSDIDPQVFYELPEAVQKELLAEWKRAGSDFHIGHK"}, "source": "PubChem BioAssay AID588590", "about": "(National Center for Advancing Translational Sciences (NCATS), 2011)", "note": "The campaign covered roughly 390,000 compounds. About 4,000 (1%) were called active. The shares of active, inactive and inconclusive entries below differ from those in the screen. Calls come from the whole dose curve; as a rule, active = well fitted inhibition curve with a large enough effect; inconclusive = small, poorly fitted or top-dose-only effect, or another doubt; inactive = no such curve, though single readings can be large or run the other way. Potencies of inconclusive entries are doubtful fits and often do not repeat. Potency is the fitted concentration of half-maximal effect.", "data": [{"target": "DNA polymerase iota (Homo sapiens) (UniProt Q9UNA4)", "assay": "qHTS for Inhibitors of Polymerase Iota", "settings": "Pol iota fluorescent replication assay, 10 min; series mostly up to 115 µM; activity, negative = inhibition: at the top concentration", "method_in_brief": "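Fluorescent replication assay read twice, at 0 min and 10 min after adding 50 nM (final) substrate. Enzyme (10 nM) and compounds were first incubated 15 min at room temperature; enzyme-free buffer wells were negative controls.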", "values": [{"smiles": "O=C(O)c1nn(-c2ccccc2)ccc1=O", "Potency": "inconclusive: 39.8 µM [inhibitor, partial curve, poor fit]"}, {"smiles": "CCCCNC(=O)c1ccc2nc(-c3cccs3)c(-c3cccs3)nc2c1", "activity, negative = inhibition": "inactive: 15.7%"}, {"smiles": "O=C(CCCCn1c(=O)c2ccccc2n(CC(=O)Nc2ccccc2)c1=O)NCc1ccco1", "Potency": "inconclusive: 14.1 µM [inhibitor, partial curve, poor fit]"}, {"smiles": "O=S(=O)(CCSc1nc2ccccc2o1)c1nc2ccccc2s1", "Potency": "inconclusive: 20 µM [inhibitor, single point]"}, {"smiles": "CCOc1ccc(OCCC(=O)OCC(=O)N2CCN(S(=O)(=O)c3ccc(Cl)cc3)CC2)cc1", "Potency": "inconclusive: 89.1 µM [inhibitor, single point]"}, {"smiles": "Cc1ccc(C2(C)NC(=O)N(CC(=O)c3ccc(Cl)s3)C2=O)cc1", "note": "(stereo not given)", "Potency": "inconclusive: 22.4 µM [inhibitor, partial curve, poor fit]"}, {"smiles": "CCn1c(SCC(=O)Nc2ccc3c(c2)c2ccccc2n3CC)nnc1-c1cnccn1", "Potency": "inconclusive: 39.8 µM [inhibitor, single point]"}, {"smiles": "CSc1cccc(NC(=O)C2CC(=O)N(Cc3ccccc3)C2)c1", "note": "(stereo not given)", "activity, negative = inhibition": "inactive: 14.1%"}, {"smiles": "O=C(CSc1nn(-c2ccc(F)cc2)c(=S)s1)NC(=O)NCc1ccco1", "Potency": "inconclusive: 70.8 µM [inhibitor, full curve]"}, {"smiles": "Cc1ccc(CNC(=O)CCS(=O)(=O)c2ccc(Br)s2)cc1", "Potency": "inconclusive: 79.4 µM [inhibitor, single point]"}, {"smiles": "COc1ccc(-c2nc(=S)[nH][nH]2)cc1OC", "activity, negative = inhibition": "inactive: 2.06%"}, {"smiles": "CCOC(=O)/C=C1\\SCC(=O)N1Cc1nnc(-c2ccccc2Br)o1", "Potency": "inconclusive: 17.8 µM [inhibitor, full curve, poor fit]"}, {"smiles": "O=C1NC(=Nc2ccccc2Cl)S/C1=C\\c1cc([N+](=O)[O-])ccc1O", "Potency": "active: 35.5 µM"}, {"smiles": "COc1cc(/C=C(/C#N)c2nc(-c3cc4ccccc4oc3=O)cs2)ccc1O", "activity, negative = inhibition": "inactive: -4.73%"}, {"smiles": "O=S(=O)(N/N=C\\c1ccccc1O)c1ccc(Cl)cc1", "activity, negative = inhibition": "inactive: -10.7%"}, {"smiles": "Cc1ccc(Cn2c(=O)sc3ccccc3c2=O)cc1", "activity, negative = inhibition": "inactive: 28.1%"}, {"smiles": "Cc1ccc(NC(=O)CSc2ncc(-c3ccccc3)n2C(=O)c2ccccc2)cc1", "Potency": "inconclusive: 79.4 µM [inhibitor, partial curve, poor fit]"}, {"smiles": "COc1ccc(-c2cc3c(=O)n(CC(=O)NCCN4CCCC4)nc(C)n3n2)cc1", "Potency": "inconclusive: 79.4 µM [inhibitor, single point]"}, {"smiles": "CCC(=O)N1CCc2cc(OC)c(OC)cc2C1COc1ccc(F)cc1", "note": "(stereo not given)", "Potency": "inconclusive: 70.8 µM [inhibitor, single point]"}, {"smiles": "O=[N+]([O-])c1ccc(O)c(C=Nc2cccc3ccccc23)c1", "Potency": "inconclusive: 3.98 µM [inhibitor, partial curve, poor fit]"}, {"smiles": "Cc1cc(=O)[nH]c(N/N=C/C2=C(N3CCOCC3)C(=C\\c3ccc(Cl)cc3)/CC2)n1", "Potency": "inconclusive: 112 µM [inhibitor, partial curve, poor fit]"}, {"smiles": "CCCCNC(=S)N(C)/N=C/c1ccc(OCC(=O)Nc2ccc(OC)cc2)c(OC)c1", "Potency": "inconclusive: 44.7 µM [inhibitor, partial curve, poor fit]"}, {"smiles": "Cc1cc(C)c(NC(=O)c2cc(C)nc3c2c(C)nn3-c2cccc(F)c2)c(C)c1", "activity, negative = inhibition": "inactive: 32.4%"}, {"smiles": "COC(=O)c1ccc(NC(=O)c2cnn(-c3ccc(Cl)cc3)c2C2CCN(C(=O)OC(C)(C)C)CC2)cc1", "Potency": "active: 89.1 µM"}, {"smiles": "Cc1cccc2c(C(O)c3cn(C)c4ccccc34)c[nH]c12", "note": "(stereo not given)", "activity, negative = inhibition": "inactive: 33.4%"}, {"smiles": "O=C(CC1CCCCC1)Nc1ccc(-c2ccc3nncn3n2)cc1", "Potency": "inconclusive: 50.1 µM [inhibitor, partial curve, poor fit]"}, {"smiles": "Oc1ccc(Br)cc1-c1cc(-c2ccccc2)n[nH]1", "Potency": "inconclusive: 22.4 µM [inhibitor, single point]"}, {"smiles": "O=C(CSc1nccn1Cc1ccc2c(c1)OCO2)Nc1ccccc1F", "activity, negative = inhibition": "inactive: 34.9%"}, {"smiles": "CCOC(=O)C(C)N1C(=O)S/C(=C\\c2ccc(-c3ccccc3C(=O)O)o2)C1=O", "note": "(stereo not given)", "Potency": "inconclusive: 3.16 µM [inhibitor, partial curve, poor fit]"}, {"smiles": "CCOC(=O)C1=C(N)N2C(=O)C(C)SC2=C(C(=O)OCC)C1c1ccc(O)cc1", "note": "(stereo not given)", "Potency": "inconclusive: 25.1 µM [inhibitor, partial curve, poor fit]"}, {"smiles": "O=C(N/N=C/c1cn(-c2ccccc2)nc1-c1ccc2c(c1)OCCO2)c1ccncc1", "Potency": "inconclusive: 25.1 µM [inhibitor, partial curve]"}, {"smiles": "O=C(CCCOc1ccccc1)Nc1nnc(C2CCCO2)s1", "note": "(stereo not given)", "Potency": "inconclusive: 6.31 µM [inhibitor, partial curve, poor fit]"}, {"smiles": "COc1cccc2sc(Nc3nnc(-c4ccc(F)cc4)o3)nc12", "activity, negative = inhibition": "inactive: -22.9%"}, {"smiles": "O=C(CN1CCOCC1)OCCCc1ccccc1", "Potency": "inconclusive: 1.58 µM [inhibitor, full curve, poor fit]"}, {"smiles": "O=C(c1ccc2c(c1)OCO2)[C@@H]1[C@@H]2C(=O)N(C3CCCCC3)C(=O)[C@@H]2C2c3ccccc3C=CN21", "note": "(stereo not given in full)", "Potency": "inconclusive: 0.891 µM [inhibitor, partial curve, poor fit]"}, {"smiles": "COc1ccccc1C(=O)Nc1nnc(SCc2cc(=O)c3ccccc3[nH]2)s1", "Potency": "inconclusive: 50.1 µM [inhibitor, partial curve]"}, {"smiles": "O=C1c2ccccc2C(=O)N1CCC(c1ccc(F)cc1)c1ccco1", "note": "(stereo not given)", "Potency": "inconclusive: 28.2 µM [inhibitor, partial curve, poor fit]"}, {"smiles": "O=C(Cc1ccc(Cl)cc1)Nc1ccc(N2CCN(C(=O)c3ccco3)CC2)cc1", "Potency": "inconclusive: 14.1 µM [inhibitor, partial curve, poor fit]"}, {"smiles": "O=C(NCC(=O)N1CCC(Cc2ccccc2)CC1)c1ccc(Cl)cc1", "Potency": "inconclusive: 89.1 µM [inhibitor, single point]"}, {"smiles": "Cc1onc(-c2ccccc2Cl)c1C(=O)Nc1nnc(C2CCCCC2)s1", "activity, negative = inhibition": "inactive: 13.7%"}, {"smiles": "Cc1cc(C)n2[nH]c(=O)c(N=Nc3cccc(Cl)c3)c2n1", "activity, negative = inhibition": "inactive: -1.21%"}, {"smiles": "COc1ccc(NC(=O)CN(C)CC(=O)Nc2cccc(F)c2)cc1S(=O)(=O)N1CCCCC1", "activity, negative = inhibition": "inactive: -19.3%"}, {"smiles": "CCS(=O)(=O)c1ncc(Cl)c(C(=O)Nc2ccc(S(=O)(=O)N(C)c3ccccc3)cc2)n1", "Potency": "inconclusive: 20 µM [inhibitor, partial curve, poor fit]"}, {"smiles": "NC(=O)CCN(C1CCCCC1)S(=O)(=O)c1cccc2nsnc12", "Potency": "inconclusive: 89.1 µM [inhibitor, single point]"}, {"smiles": "Cc1ccc(C)c(NC(=O)Nc2cc3c(cc2N2CCCCC2)n(C)c(=O)n3C)c1", "activity, negative = inhibition": "inactive: -2.9%"}, {"smiles": "O=C(Nc1ccc(Oc2ccc(NC(=O)Nc3ccccc3Cl)cc2)cc1)Nc1ccccc1Cl", "Potency": "inconclusive: 100 µM [inhibitor, single point]"}, {"smiles": "CC(=O)Nc1ccc(NC(=O)c2cc(-c3ccc(C)cc3O)n[nH]2)cc1", "Potency": "inconclusive: 89.1 µM [inhibitor, partial curve, poor fit]"}, {"smiles": "C[C@@H](CN1CCC(Cc2ccccc2)CC1)[C@@H](O)c1ccc(O)cc1", "Potency": "inconclusive: 89.1 µM [inhibitor, single point]"}, {"smiles": "Cc1ccc(S(=O)(=O)n2[nH]c(=O)cc2N)cc1", "Potency": "inconclusive: 11.2 µM [inhibitor, full curve, poor fit]"}, {"smiles": "Cc1ccc(NC(=O)Cn2cnc3c(oc4ccccc43)c2=O)cc1Cl", "activity, negative = inhibition": "inactive: -29.5%"}, {"smiles": "CCOC(=O)Cc1csc(NC(=O)CSc2nc(C)cc(=O)[nH]2)n1", "Potency": "inconclusive: 11.2 µM [inhibitor, partial curve, poor fit]"}, {"smiles": "CN(C)C(N)=NCCC[C@H](N)C(=O)O", "Potency": "inconclusive: 28.2 µM [inhibitor, single point]"}, {"smiles": "COc1cc(/C=N/NC(=O)CSc2nc3ccccc3n2C)cc(OC)c1OC", "Potency": "inconclusive: 89.1 µM [inhibitor, single point]"}, {"smiles": "N#Cc1cc2nc(O)c(O)nc2cc1[N+](=O)[O-]", "Potency": "inconclusive: 39.8 µM [inhibitor, partial curve]"}, {"smiles": "CN(C)c1ccc(CNC(=O)C2CCN(c3nnc(-n4cccc4)s3)CC2)cc1", "Potency": "inconclusive: 89.1 µM [inhibitor, single point]"}, {"smiles": "COC(=O)[C@H](NC(=O)c1cc(-c2ccccc2)nc2ccccc12)c1ccccc1", "Potency": "inconclusive: 5.62 µM [inhibitor, partial curve, poor fit]"}, {"smiles": "Cc1ccccc1NC(=O)COC(=O)c1cccc(S(=O)(=O)N2CCCCC2)c1", "Potency": "inconclusive: 89.1 µM [inhibitor, single point]"}, {"smiles": "O=c1[nH][nH]c(C(F)(F)F)c1C=Nc1ccccc1Cl", "Potency": "inconclusive: 39.8 µM [inhibitor, single point]"}, {"smiles": "COc1ccc(-c2cc(C(=O)Nc3cc(C(F)(F)F)ccc3Cl)no2)cc1", "activity, negative = inhibition": "inactive: -1%"}, {"smiles": "COc1cc(OC)c2c(c1C(CCN1CCCC1)c1ccc(N(C)C)cc1)OC(=O)CC2c1ccc(N(C)C)cc1", "note": "(stereo not given)", "Potency": "inconclusive: 100 µM [inhibitor, partial curve, poor fit]"}, {"smiles": "Cc1ccccc1NS(=O)(=O)c1cc(C(=O)Nc2cccc(N(C)S(C)(=O)=O)c2)ccc1C", "Potency": "inconclusive: 79.4 µM [inhibitor, partial curve, poor fit]"}, {"smiles": "Fc1ccc(-c2c[nH]c(=S)n2Cc2ccccc2)cc1", "activity, negative = inhibition": "inactive: -3.76%"}, {"smiles": "Cc1cc2c(C)nc(N/N=C/c3ccc([N+](=O)[O-])cc3)nc2o1", "Potency": "active: 35.5 µM"}, {"smiles": "Cc1ccc(NC2=C(NCCO)C(=O)c3ccccc3C2=O)cc1", "Potency": "active: 20 µM"}, {"smiles": "Cc1ccc(C(=O)N/N=C/c2cn(Cc3ccccc3)c3ccccc23)cn1", "activity, negative = inhibition": "inactive: -5.59%"}]}]}
